In paper doi:10.1101/2023.05.11.540316:
No constants are given. Whether binding was seen depends on the method and setting. Binding seen in cells or lysates may run through a third protein. Some binding calls cover weakened binding; strength is not graded here. Where a sequence is shown, tags or fusion partners need not be part of it.

By UniProt entry, the sequences of proteins in these tests, tags left out.
UniProt P61765: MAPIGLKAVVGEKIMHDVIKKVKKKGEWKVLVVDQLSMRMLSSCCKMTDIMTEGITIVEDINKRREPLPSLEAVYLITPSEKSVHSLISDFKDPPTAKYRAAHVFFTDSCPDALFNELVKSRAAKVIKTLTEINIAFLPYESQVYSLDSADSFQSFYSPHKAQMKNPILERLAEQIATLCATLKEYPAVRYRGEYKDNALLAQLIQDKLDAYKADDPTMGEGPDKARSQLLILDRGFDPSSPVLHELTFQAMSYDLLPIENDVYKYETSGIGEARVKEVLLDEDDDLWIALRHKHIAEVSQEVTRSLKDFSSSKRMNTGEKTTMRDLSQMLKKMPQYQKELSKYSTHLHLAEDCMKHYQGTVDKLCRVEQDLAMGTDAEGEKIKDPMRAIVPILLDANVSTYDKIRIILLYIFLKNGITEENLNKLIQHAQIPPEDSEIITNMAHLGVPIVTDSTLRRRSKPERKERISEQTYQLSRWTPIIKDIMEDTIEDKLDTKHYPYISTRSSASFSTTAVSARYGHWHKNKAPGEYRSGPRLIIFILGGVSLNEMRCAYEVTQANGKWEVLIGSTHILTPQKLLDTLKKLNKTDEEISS

Biological target: T1, GFP-DDHD2 (UniProt D3ZJ91)
T1 sequence: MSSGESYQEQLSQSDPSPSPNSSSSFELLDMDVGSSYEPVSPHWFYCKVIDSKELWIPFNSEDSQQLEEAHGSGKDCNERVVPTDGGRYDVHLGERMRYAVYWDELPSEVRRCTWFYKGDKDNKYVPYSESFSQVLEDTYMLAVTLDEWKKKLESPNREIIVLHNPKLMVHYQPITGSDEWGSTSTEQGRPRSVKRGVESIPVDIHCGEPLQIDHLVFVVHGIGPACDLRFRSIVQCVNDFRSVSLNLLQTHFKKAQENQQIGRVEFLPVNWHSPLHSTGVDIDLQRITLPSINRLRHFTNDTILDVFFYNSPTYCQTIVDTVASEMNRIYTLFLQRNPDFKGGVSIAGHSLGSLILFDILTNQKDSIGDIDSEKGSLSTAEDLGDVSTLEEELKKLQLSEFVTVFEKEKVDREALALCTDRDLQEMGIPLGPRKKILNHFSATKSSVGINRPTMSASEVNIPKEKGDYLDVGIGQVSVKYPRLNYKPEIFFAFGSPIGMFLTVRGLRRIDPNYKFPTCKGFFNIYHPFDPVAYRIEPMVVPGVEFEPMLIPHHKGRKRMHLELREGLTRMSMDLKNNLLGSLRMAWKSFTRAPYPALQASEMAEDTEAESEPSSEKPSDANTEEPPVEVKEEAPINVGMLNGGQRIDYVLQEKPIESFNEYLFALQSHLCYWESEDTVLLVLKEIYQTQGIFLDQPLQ
Test: co-IP

Substance: Syntaxin-binding protein 1 (STXBP1), endogenous in PC12 cells (from UniProt P61765 1-594)
- binding: binds
